According to PubChem BioAssay AID1487 (National Center for Advancing Translational Sciences (NCATS), 2009):
The list shows a part of the results. The main result of the screen is listed elsewhere. These columns were measured beside it and carry no call. Compounds called inactive in the main read-out are mostly missing here. Potencies come from curve fits of mixed quality, noted in brackets.

Test: qHTS Assay for Modulators of Lamin A Splicing
Conditions: HeLa LMNA splicing GFP/RFP minigene ratio, 48 h
Outline: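 S3 HeLa cells stably expressing lamin A-EGFP splicing minigene plus DsRed2, 600 cells/well, 48 h compound exposure at 37C. Laser-scanning cytometry; analysed as GFP (500-530 nm)/RFP (575-640 nm) total intensity ratio; 0.5% DMSO vehicle.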

[1] = measured here: RFP viability control channel
[2] = measured here: GFP splicing reporter channel

SMILES | AC50 [1] | AC50 [2]
Cc1csc(NC(=O)Nc2cccc(Cl)c2)n1 | 20 µM [rising, partial curve, poor fit] | –
COc1ccc(CCNC(=O)CSc2nc3ccccc3nc2Cc2ccc(Cl)cc2)cc1OC | – | 0.708 µM [rising, single point]
Cc1ccc(Nc2cc(C)nc(-c3ccccc3O)n2)cc1 | – | 22.4 µM [rising, single point]
CCC(Sc1nc2c(cnn2-c2ccc(Cl)cc2)c(=O)[nH]1)C(=O)OC (centres undefined) | 0.0126 µM [falling, full curve, poor fit] | –
O=C(c1ccccc1Sc1ccc([N+](=O)[O-])cc1)N1CCCCC1 | 35.5 µM [rising, single point] | –
Cc1ccc(SCC(=O)NCCSCc2ccccc2)cc1 | – | 0.631 µM [rising, full curve, poor fit]
COc1cccc(NC(=O)C(Cc2ccccc2)NC(=O)C2CCC(C)CC2)c1 (centres undefined) | 31.6 µM [rising, single point] | 28.2 µM [rising, single point]
O=C1C2=C(c3ccccc31)[N+](=O)[C@@H]1CCCC[C@@H]1N2[O-] | 0.2 µM [falling, partial curve] | –
CCOC(=O)c1ccc(S(=O)(=O)NCC(C)(C)N2CCOCC2)cc1 | – | 0.00355 µM [falling, full curve, poor fit]
Cc1cccc(S(=O)(=O)C(C#N)c2nc3ccccc3nc2N2CCOCC2)c1 (centres undefined) | 20 µM [rising, partial curve, poor fit] | –
COc1ccc(C(=O)O/N=C(\N)c2ccccc2)c(OC)c1 | 6.31 µM [rising, partial curve, poor fit] | 5.62 µM [rising, partial curve, poor fit]
O=C(c1cc(=O)[nH]c2ccccc12)N1CCN(S(=O)(=O)c2ccc3ccccc3c2)CC1 | 0.141 µM [rising, full curve] | –
CCS(=O)(=O)Nc1cccc(-c2nc3cccnc3s2)c1C | 14.1 µM [rising, partial curve, poor fit] | –
CC(C)C[C@@H](N)C(=O)O | 0.501 µM [falling, partial curve] | 35.5 µM [falling, single point]
Cc1cc(SCC(=O)Nc2ccc(C(F)(F)F)cc2)nc(=O)[nH]1 | 10 µM [falling, partial curve, poor fit] | 0.282 µM [falling, full curve]
N#Cc1c(NC(=O)CSc2nc3ccccc3s2)sc2c1CCCC2 | 15.8 µM [rising, partial curve, poor fit] | –
O=C(CCCO)N/N=C/c1cc(Br)ccc1O | 3.98 µM [rising, partial curve] | 2.82 µM [rising, partial curve]
CCOCCCNC(=O)c1ccc2c(c1)ncn2C1CCCC1 | 10 µM [rising, partial curve] | –
Cn1c(SCc2nc(-c3ccc(Cl)cc3)no2)nnc1-c1ccccc1 | 15.8 µM [rising, single point] | 15.8 µM [rising, partial curve]
COc1ccccc1NS(=O)(=O)c1cc(NC(=O)Nc2ccc(Cl)cc2Cl)ccc1N1CCCCC1 | 11.2 µM [rising, partial curve] | 11.2 µM [rising, single point]
CCOc1ccc(Cc2c(Cl)nc(SC)nc2N(C)C)cc1 | 2.82 µM [rising, single point] | 35.5 µM [falling, single point]
CC1=C/C(=N\OS(=O)(=O)c2ccccc2)C=CC1=O | 35.5 µM [falling, single point] | 28.2 µM [falling, single point]
S=C(NCCc1ccccc1)Nc1ccc(Br)cn1 | – | 0.0126 µM [falling, full curve, poor fit]
CCCn1cc(SCC(=O)Nc2ccc3c(c2)OCO3)c2ccccc21 | 11.2 µM [rising, partial curve] | –
Cc1ccccc1-n1nnnc1SCCCC(=O)c1ccc(F)cc1 | 35.5 µM [rising, single point] | –
COc1cccc(C(=O)/C=C/c2ccc(OCC#N)c(OC)c2)c1 | 35.5 µM [falling, single point] | 17.8 µM [falling, partial curve, poor fit]
O=C(CN(Cc1cccs1)S(=O)(=O)c1ccc(S(=O)(=O)N2CCCCC2)cc1)Nc1ccccc1 | 0.00501 µM [falling, full curve, poor fit] | –
COc1ccc(N(C(=O)Cn2nnc(-c3ccccc3F)n2)C(C(=O)NCC2CCCO2)c2ccc(Cl)cc2)cc1 (centres undefined) | 8.91 µM [falling, partial curve, poor fit] | 7.08 µM [falling, partial curve]

SMILES | AC50 [1] | AC50 [2]
C#CC(N)CCC(=O)O (centres undefined) | 5.62 µM [falling, single point] | –
CC(NS(=O)(=O)c1ccccc1)C(=O)Nc1nccs1 (centres undefined) | 0.0794 µM [falling, partial curve, poor fit] | –
Cc1ccc(Cn2cccc2/C=C2/C(=N)N3C=CSC3=NC2=O)cc1 | 0.355 µM [rising, full curve, poor fit] | –
Cc1ccc(NC(=O)CSc2nc3nccnc3c(=O)n2CCc2c[nH]c3ccccc23)c(C)c1 | 14.1 µM [rising, partial curve, poor fit] | 35.5 µM [rising, partial curve, poor fit]
COc1ccccc1N1C(=O)C2CCC(c3ccccc3)CC2C1=O (centres undefined) | – | 20 µM [rising, single point]
O=C(NCCc1ccccc1)C(=O)Nc1ccc2c(c1)OCCO2 | 0.316 µM [falling, partial curve, poor fit] | –
CCCCN(CC)S(=O)(=O)c1ccc(C(=O)Nc2nnc(-c3cccs3)o2)cc1 | 14.1 µM [rising, partial curve, poor fit] | –
COc1ccc(CCNC(=O)COc2ccc(C)nc2[N+](=O)[O-])cc1 | – | 0.01 µM [falling, full curve, poor fit]
Cc1ccc(SCCC(=O)N/N=C/c2ccccc2O)cc1 | 11.2 µM [rising, partial curve] | –
CC(C)(C)c1ccc(C(=O)N2CCC(=O)N(C(COCc3ccccc3)Cc3ccccc3)CC2)cc1 (centres undefined) | 15.8 µM [rising, single point] | –
CN(C)c1ccc(-c2nc(Nc3ccncc3)c3ccccc3n2)cc1 | 35.5 µM [falling, single point] | 22.4 µM [falling, partial curve]
Cc1c(NC(=O)c2coc(=O)c(Br)c2)c(=O)n(-c2ccccc2)n1C | 35.5 µM [falling, single point] | 35.5 µM [falling, single point]
Cc1ccccc1C(CC(=O)c1cccs1)C(C#N)C#N (centres undefined) | 25.1 µM [falling, single point] | 12.6 µM [falling, partial curve]
CO/N=C\CC(=O)Nc1ccc(Oc2ccccc2)cc1 | 5.62 µM [falling, single point] | 3.55 µM [falling, single point]
CSc1nc(C)cc(SCC(=O)Nc2ccccc2)n1 | 35.5 µM [rising, single point] | –
CC(Oc1ccc(F)cc1)C(=O)N1CCC(c2nc3ccccc3s2)CC1 (centres undefined) | 0.00447 µM [falling, full curve, poor fit] | 1 µM [falling, partial curve, poor fit]
CCn1c(-c2ccc(C)cc2)nn(CC(=O)NCCc2ccccc2)c1=S | 6.31 µM [rising, full curve] | 1.41 µM [rising, partial curve, poor fit]
C/C=C/Cn1c(SCc2ccc(C)cc2)nc2c1c(=O)[nH]c(=O)n2C | 31.6 µM [rising, single point] | 20 µM [rising, single point]
COc1ccccc1OCc1ccc(C(=O)NC(C)(C)C)o1 | 31.6 µM [rising, single point] | 31.6 µM [rising, single point]
Cn1ncc2c(N3CCN(c4cccc(Cl)c4)CC3)ncnc21 | – | 0.02 µM [falling, full curve, poor fit]
CCCOc1cc(N)ccc1C(=O)OCCN(CC)CC | – | 0.000316 µM [falling, full curve, poor fit]
O=S(=O)(NC1CC1)c1ccc(S(=O)(=O)N2CCc3ccccc32)cc1 | 12.6 µM [rising, partial curve] | 11.2 µM [rising, partial curve]
Cc1cc(C)nc(NCC(O)CNc2ccccc2C)n1 (centres undefined) | 35.5 µM [rising, single point] | –
CCOC(=O)CC(c1ccc([N+](=O)[O-])cc1)n1c(C)ccc1C (centres undefined) | 0.0282 µM [falling, full curve, poor fit] | 0.0224 µM [falling, full curve, poor fit]
COc1ccc(NC(=O)/C(Cl)=C(/Cl)S(=O)(=O)Cc2ccccc2)cn1 | 8.91 µM [falling, partial curve, poor fit] | 4.47 µM [falling, full curve]
N#CC1=C(N)C2=CCCC[C@H]2[C@H](c2cccc(F)c2)C1(C#N)C#N | 15.8 µM [rising, single point] | –
CCN(CC)S(=O)(=O)c1ccc(-c2nnc(SCC(=O)N3CCOCC3)o2)cc1 | 10 µM [rising, partial curve] | 14.1 µM [rising, partial curve, poor fit]

Sorted by heavy-atom count (largest number first): part of the list above
SMILES | AC50 [1] | AC50 [2]
CC(C)(C)c1ccc(C(=O)N2CCC(=O)N(C(COCc3ccccc3)Cc3ccccc3)CC2)cc1 (centres undefined) | 15.8 µM [rising, single point] | –
CCN(CC)S(=O)(=O)c1ccc(-c2nnc(SCC(=O)N3CCOCC3)o2)cc1 | 10 µM [rising, partial curve] | 14.1 µM [rising, partial curve, poor fit]
CC(Oc1ccc(F)cc1)C(=O)N1CCC(c2nc3ccccc3s2)CC1 (centres undefined) | 0.00447 µM [falling, full curve, poor fit] | 1 µM [falling, partial curve, poor fit]
CN(C)c1ccc(-c2nc(Nc3ccncc3)c3ccccc3n2)cc1 | 35.5 µM [falling, single point] | 22.4 µM [falling, partial curve]
O=S(=O)(NC1CC1)c1ccc(S(=O)(=O)N2CCc3ccccc32)cc1 | 12.6 µM [rising, partial curve] | 11.2 µM [rising, partial curve]
N#CC1=C(N)C2=CCCC[C@H]2[C@H](c2cccc(F)c2)C1(C#N)C#N | 15.8 µM [rising, single point] | –
CCOC(=O)CC(c1ccc([N+](=O)[O-])cc1)n1c(C)ccc1C (centres undefined) | 0.0282 µM [falling, full curve, poor fit] | 0.0224 µM [falling, full curve, poor fit]
CO/N=C\CC(=O)Nc1ccc(Oc2ccccc2)cc1 | 5.62 µM [falling, single point] | 3.55 µM [falling, single point]
CSc1nc(C)cc(SCC(=O)Nc2ccccc2)n1 | 35.5 µM [rising, single point] | –
C#CC(N)CCC(=O)O (centres undefined) | 5.62 µM [falling, single point] | –
